Binding data for three molecules are collected here from paper PMC10023571, “EGOC inhibits TOROID polymerization by structurally activating TORC1” (Nature Structural & Molecular Biology, 2023).

This assay concerns the target T1, Ego1(∆1-111:His6) (S. cerevisiae) (UniProt Q02205).
T1 sequence: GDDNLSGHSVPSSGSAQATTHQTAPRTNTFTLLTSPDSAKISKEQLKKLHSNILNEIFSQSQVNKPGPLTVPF
Nature of the assay: SEC; EGOC components co-expressed in E. coli, Ni-NTA by the His6 on Ego1, then Superdex GF200 Increase in 50 mM MES-NaOH pH 6.0, 300 mM NaCl, 0.15% CHAPS, 1 mM MgCl2, 0.5 mM DTT; fractions on Coomassie-stained SDS-PAGE; both purified. For orientation: In gel filtration, larger molecules generally elute earlier.

No constants are given. Whether binding was seen depends on the method and setting. Some results given as binding are weak or reduced against the parent protein; the word gives no strength. Tags and fused reporters may be left off the sequences shown.

B1: Gtr2^WT (protein, UniProt P53290 1-341)
chain: MSLEATDSKAMVLLMGVRRCGKSSICKVVFHNMQPLDTLYLESTSNPSLEHFSTLIDLAVMELPGQLNYFEPSYDSERLFKSVGALVYVIDSQDEYINAITNLAMIIEYAYKVNPSINIEVLIHKVDGLSEDFKVDAQRDIMQRTGEELLELGLDGVQVSFYLTSIFDHSIYEAFSRIVQKLIPELSFLENMLDNLIQHSKIEKAFLFDVNSKIYVSTDSNPVDIQMYEVCSEFIDVTIDLFDLYKAPVLRNSQKSSDKDNVINPRNELQNVSQLANGVIIYLRQMIRGLALVAIIRPNGTDMESCLTVADYNIDIFKKGLEDIWANARASQAKNSIEDDV
Regarding B1, the binding result is “binds”.

B2: Gtr1^WT (protein, UniProt Q00582 1-310)
chain: MSSNNRKKLLLMGRSGSGKSSMRSIIFSNYSAFDTRRLGATIDVEHSHLRFLGNMTLNLWDCGGQDVFMENYFTKQKDHIFQMVQVLIHVFDVESTEVLKDIEIFAKALKQLRKYSPDAKIFVLLHKMDLVQLDKREELFQIMMKNLSETSSEFGFPNLIGFPTSIWDESLYKAWSQIVCSLIPNMSNHQSNLKKFKEIMNALEIILFERTTFLVICSSNGENSNENHDSSDNNNVLLDPKRFEKISNIMKNFKQSCTKLKSGFKTLILNNNIYVSELSSNMVCFIVLKDMNIPQELVLENIKKAKEFFQ
B2: the binding result is “binds”.

B3: Ego2(∆1-21) (domain or fragment, UniProt Q3E830 22-75)
chain: IESTGVGSQRIEDIGDLSKVTLDAEGFAQVQGDSLLVHLYKRNDITLAVYTSAQ
Regarding B3, the binding result is listed as “binds”.
